Data as given in PubChem BioAssay AID686937 (Drosophila RNAi Screening Center, 2013).
Screen: 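Knock-downs that reduce output of a secreted reporter enzyme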 (primary screen). Cells: Drosophila S2 cells expressing secreted horseradish peroxidase. Reagent: long dsRNA against Drosophila genes. Timing: about 5.5 days (5 days dsRNA, then 12 h reporter induction). Treatment: reporter expression induced after 5 days of dsRNA, read 12 h later; inducer not stated. Measured: 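Chemiluminescent measurement of peroxidase in the medium 12 h after reporter induction, following 5 days of dsRNA, given as a z-score per plate; higher means more secretion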. Reading the numbers: z-score: higher = more reporter secreted into medium.
In all, the deposit lists about 23,000 reagents; this is a random part of those that have a named target and a result. 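Reduced-secretion tags in replicate 1 do not always agree with the z-scores; no criterion for assigning the tags was given.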 A plus sign joins genes that one reagent is predicted to hit. Not given: the amount of reagent.

What did the screen give for CG3534 [DRSC15494]?
z-score, replicate 1: 0.3; z-score, replicate 2: 0.15

What did the screen give for CG11741 [DRSC14367]?
z-score, replicate 1: -0.03; z-score, replicate 2: 0.5

For Myt1 [DRSC11228], what does the deposit list?
z-score, replicate 1: 0.14; z-score, replicate 2: 0.17

Which result is listed for CG9890 [DRSC04590]?
z-score, replicate 1: 0.09; z-score, replicate 2: 0.1

Which result is listed for Vang [DRSC07570]?
z-score, replicate 1: 0.48; z-score, replicate 2: 0.22

What did the screen give for osk [DRSC17023]?
z-score, replicate 1: 0.23; z-score, replicate 2: 0.28

With Naa20B [DRSC21442], how do the results read?
z-score, replicate 1: -0.04; z-score, replicate 2: 1.5

With CG3719 [DRSC18493], what does the deposit list?
z-score, replicate 1: 0.64; z-score, replicate 2: 0.47

How did the screen score CG32278 + CG14963 [DRSC22203]?
z-score, replicate 1: -0.18; z-score, replicate 2: 0.21

For CG9525 [DRSC03249], how do the results read?
z-score, replicate 1: 0.55; z-score, replicate 2: 0.14

No new results follow: an excerpt of the list.
Naa20B [DRSC21442] | z-score, replicate 1 = -0.04; z-score, replicate 2 = 1.5
CG3719 [DRSC18493] | z-score, replicate 1 = 0.64; z-score, replicate 2 = 0.47

Next reagents:
For lectin-37Db [DRSC03279], what does the deposit list?
z-score, replicate 1: 0.39; z-score, replicate 2: 0.47

Which result is listed for cnn [DRSC05422]?
z-score, replicate 1: 0.51; z-score, replicate 2: 0.14

Which result is listed for cnn [DRSC07596]?
z-score, replicate 1: -0.13; z-score, replicate 2: 0

What is on record for eIF3k [DRSC04056]?
z-score, replicate 1: 0.68; z-score, replicate 2: 0.7

For RhoGAP5A [DRSC18294], what does the deposit list?
z-score, replicate 1: 0.52; z-score, replicate 2: 0.53

Which result is listed for CG8777 [DRSC07263]?
z-score, replicate 1: 0.28; z-score, replicate 2: 0.32
